According to PubChem BioAssay AID1347423 (Functional Genomics Laboratory (NCATS/FGL), 2020):
In all, about 52,000 sequences went through this assay and about 210 (0.4%) were called active.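 The calls were made as follows: active = gene whose silencing raises cell survival under the drug, median off-target-corrected z-score across its silencing RNAs 2 or more; inactive = the rest.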 The list shows a part of the results.

Assay: Resistance to Poly (ADP-Ribose) Polymerase inhibitor: Gene Identification via Genome-wide siRNA Screen
Settings: mouse BRCA2 R2336H ES cells, olaparib, CellTiter-Glo viability; stronger effect = higher value
Procedure, shortened: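 Mouse BRCA2 R2336H ES cells were reverse-transfected with siRNA (20 nM final), treated at 48 h with 500 nM olaparib, and read by CellTiter-Glo after 72 h. Scores: MAD-based z per siRNA, median per gene, seed off-target correction.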
In the case of CCAACUGUGAUCAGUGAGCTT against Shank3, the z-score is reported as inactive: -0.254.
For GGACAAGACCAUCUUCGAUTT against BC010462, the z-score was inactive: 0.489.
In the case of GGAGCAUUAACUGUCUUGATT against Olfr356, the z-score is reported as inactive: -1.71.
In the case of GGAUCCACUAAUGUGAAAATT against Trim39, the z-score is reported as inactive: -0.834.
For “GAAGAGCAAGCCAUUUGAUTT against D930038D03Rik”, the z-score was inactive: -0.399.
For CCUGGGCCUUAACAAGAAGTT against Rent1, the z-score was inactive: -0.395.
With “CCAUACCCACUUACUGAAGTT against A830023L05” the z-score was inactive: 0.28.
In the case of GGAACUUGAACUAAAAAUGTT against Eaf1, the z-score is reported as inactive: -0.554.
In the case of GCAGGAAAUCUAAUGCACUTT against Gsdm3, the z-score is reported as inactive: -0.0448.
For GCUCUGAGUAUUGAUGGCCTT against Hcfc1r1, the z-score was inactive: 1.09.
With GCUAAGAGUCUUUGGAACGTT against Maff the z-score was inactive: -0.43.
With “GGAAGAUGCCAUCUUACACTT against 2010012O05Rik” the z-score was inactive: -0.527.
With GCAUCUCACUUUUGACCUATT against BC038286 the z-score was inactive: 0.862.
In the case of CCUGGACAAGCUAUACCUUTT against Cdc45l, the z-score is reported as inactive: 2.5.
For UAUUAAGUGAGGGUAGUAGTT against Olfr1168, the z-score was inactive: -0.121.
With GGAACGAGAACGAGUCCUUTT against Psd2 the z-score was inactive: -1.46.
For CGGUUUUGUCAAAGCCCUGTT against Junb, the z-score was inactive: 1.73.
For GGACAAUGUCCUCUCGCUATT against Tgm2, the z-score was inactive: 1.98.
For GGGAAGAGAGGAGAAUAUUTT against Stat4, the z-score was inactive: 1.15.
For GUAUUCGGUAAUUUGACUUTT against Olfr921, the z-score was inactive: -0.192.
For “CCUCAGAUCUUGACCCUGGTT against 1110067I12Rik”, the z-score was inactive: -0.524.
For GGACUUGGACAAACAUCAATT against Cox7a1, the z-score was inactive: 0.317.
In the case of GGACUUUUAUUUUGUUAGCTT against Pacsin2, the z-score is reported as active: 3.01.
In the case of GGUUUGAGAAUGUUUUAGGTT against Avpr1a, the z-score is reported as inactive: -0.319.
For “GGCCAUUACGAUGAAGAUUTT against 9430016A21Rik”, the z-score was inactive: -1.92.
With GGCCCUAGAAAUAAUCUGCTT against Harp the z-score was inactive: -0.212.
With GCCAGGUAUUGGAUGCCAUTT against Gm711 the z-score was inactive: 0.413.
With GCAUGCAGCGGUCCAUAUUTT against Cacna2d1 the z-score was inactive: 0.316.
In the case of CGCCUUUUGCAUAUCAGAGTT against Defb39, the z-score is reported as inactive: -0.445.
With GGACUACCUCACACUCUUCTT against Oprs1 the z-score was inactive: -0.235.
With GGAAAGUGUUGUCAAAAGATT against Olfr125 the z-score was inactive: 0.408.
In the case of GGUAAUGAGGACAUGGAUCTT against BC034664, the z-score is reported as inactive: 0.82.
For GAGAGUGAUCACUUAGGCATT against LOC381806, the z-score was inactive: -1.06.
For CGGAAAAAUGGAAGUAUAGTT against Gt4-1, the z-score was inactive: -0.708.
With CCGACCAUCCCAAGUUAAATT against Olfr199 the z-score was inactive: -0.202.
In the case of GGCGGCUCCUUUCAACUUCTT against H2-Bf, the z-score is reported as inactive: 0.111.
For CCUUCUAGAUGUCUUAAGATT against Zfp41, the z-score was inactive: 0.959.
With GGGAGAGAUUCUUCUUCAGTT against BC027174 the z-score was inactive: 0.239.
With CCUUAAAGCACAGUUCAAUTT against Gca the z-score was inactive: 0.519.
In the case of GCUAGCUGGAAGACACAUATT against Seh1l, the z-score is reported as inactive: -2.14.
In the case of GGAGAAAUAGGAUGGUCACTT against Zfp46, the z-score is reported as inactive: 3.71.
For CCUUAGUCGCUUUGUAUGGTT against Drp2, the z-score was inactive: 0.00509.
In the case of CCGUGUGGUUAAAAACUUUTT against Nktr, the z-score is reported as inactive: 1.56.
With GGAGCCGUACAUCUUACACTT against Abhd1 the z-score was inactive: -1.27.
For CGACUCCAUGUGGACUUAUTT against Gca, the z-score was inactive: 0.633.
With GGGAGAAGAUAUAAAAACUTT against Krt20 the z-score was inactive: 0.414.
With GCGGUUCUUUUCAGAGCACTT against Fbxo21 the z-score was inactive: 2.14.
In the case of GCUAACAAAGAUUCACCCATT against Aspn, the z-score is reported as inactive: 1.44.
For “GGCAAUUCUGUGUGUCACUTT against 1700067I02Rik”, the z-score was inactive: -1.13.
For CCCUUACGACUUGGCUUUGTT against Atp6v0a1, the z-score was inactive: -1.85.
For GGCCUAUUUUAUCCACACUTT against Olfr64, the z-score was inactive: -1.9.
For “GGAAGUGUAUUCAAGAAGUTT against 4932414K18Rik”, the z-score was inactive: 0.645.
In the case of GGCCAAACAACUGGUGAAGTT against Rdbp, the z-score is reported as inactive: -3.1.
With GGACAAAGAAGUGGAACCCTT against Adn the z-score was inactive: -0.245.
In the case of GUCAUAAUGAGUCAUAGAATT against Olfr149, the z-score is reported as inactive: 0.689.
For CCCUCUAUCCCUCUGUAAGTT against Grcc9, the z-score was inactive: 1.04.
With CCUACAAUGAUUUUCUCAUTT against Impdh2 the z-score was inactive: -2.32.
With GCUAGUCCAACUCAUCAUUTT against Olfr430 the z-score was inactive: -0.0182.
With GGUGAUAUUAUACAUUCACTT against Rnd1 the z-score was inactive: 0.43.
With GGUUAUAGACAUCCUUCAUTT against BC016076 the z-score was inactive: 0.742.
With GGAGGCACAGAGAUUGAAGTT against Sry the z-score was inactive: 0.938.
With GAUGCUGUAAUCUUGUGAATT against Sprrl3 the z-score was inactive: -0.206.
With GGAACAUUUCUGGAUUGUUTT against Muc1 the z-score was inactive: -0.255.
For GGAUGGAAGCACUGACUAUTT against Lyzl1, the z-score was inactive: -0.175.
With GCUGCCCUGAAGGAUAUACTT against Grn the z-score was inactive: 1.14.
In the case of GCACCUAUACAACCUCGUGTT against Nisch, the z-score is reported as inactive: 0.731.
For GCAUGAUCAGUCAGCACUATT against Nr1d2, the z-score was inactive: 0.405.
With GGUUCUUUAAUGGGUUAUGTT against Tpd52l2 the z-score was inactive: -1.12.
For GGGCAACAUUCUUCAGAAUTT against Defb5, the z-score was inactive: 0.23.
In the case of CGAAUUGGAUAAUACCCAUTT against Tpte, the z-score is reported as inactive: 0.836.
With GCACAUUUUACCAUUGCUATT against Hcfc1 the z-score was inactive: -0.129.
In the case of GGCCAUCUCCUUCAACUAUTT against Ugt2a1, the z-score is reported as inactive: 0.413.
With GGCACAUUCAUGCAAUAAATT against Ctla2a the z-score was inactive: -1.67.
With GGAAAAUGUCCAUUACUUUTT against Acad9 the z-score was inactive: -0.938.
With GGAGAUCUUUCACAUGACCTT against Hcn3 the z-score was inactive: 0.487.
With GGCCAAAGUUUACCUUCUATT against Iars the z-score was inactive: -3.02.
For CCUAUCUCCUAACUUAGUUTT against V1re12, the z-score was inactive: 0.575.
For GGUGAAGAGUGAUUUUAAUTT against Il10, the z-score was inactive: -0.388.
With GCGGCCUGUGAGAGUUUAUTT against Pcyt1a the z-score was inactive: 1.92.
In the case of CCUUCGAUAAGAAUUACAATT against Rab34, the z-score is reported as inactive: -1.28.
For GGGAAUGAUUAAGCUAGCCTT against Acvr1b, the z-score was inactive: 0.261.
With GGGUUCACAUGGCAUAGUCTT against Zfp1 the z-score was inactive: 0.034.
With “CCUAAAUUUCCAACAGUCCTT against 4930429O20Rik” the z-score was inactive: 0.45.
For GGUAAAGGUGGCUUUGAGATT against Olfr975, the z-score was inactive: -0.626.
With GGAAGAGAGAUUCCUAUAGTT against Spc18 the z-score was inactive: -2.17.
For GCACAUGUCUGUGAUUCAATT against Siat8a, the z-score was inactive: 0.906.
With CCAUGAGUAUCAAGUCAAUTT against 9-Sep the z-score was inactive: 1.55.
For GGAGUAUUACCUGGUUAAGTT against Suv39h1, the z-score was inactive: -1.42.
With GGCAUAGCUUGGAAUGGAATT against Npas2 the z-score was inactive: 0.622.
In the case of GGACACUGCGCAAGACUUCTT against Trim35, the z-score is reported as inactive: 0.818.
For GGACACUUCCAAGUAUUGGTT against Tns, the z-score was inactive: 0.0153.
In the case of GGAAGUAUGGAAGUCAAGUTT against Defb9, the z-score is reported as inactive: 2.12.
In the case of GGAGCACAUGUCCUACAUCTT against Wnt5b, the z-score is reported as inactive: -0.569.
With GGUGAUCAUGGCAAGAUGGTT against Fgf3 the z-score was inactive: -2.42.
In the case of GGUCUUCAGAAUCCUCAAUTT against Ap1g2, the z-score is reported as inactive: 0.846.
For “GUAGAAGAUGGAAUUUUUGTT against 3110001N18Rik”, the z-score was inactive: 0.315.
In the case of GGUUGUAACUUGUAAGGCATT against Ibrdc2, the z-score is reported as inactive: 1.56.
For “AGAACAUGGAGGUUAAGAUTT against 6330514A18Rik”, the z-score was inactive: 1.11.
With GGGACACAUACUGUAGUAUTT against Pspc1 the z-score was inactive: -1.9e-10.
With GCCAGUAGAUUACUUCAUUTT against Cnnm3 the z-score was inactive: -1.45.
With GCACGUGAACAACUCCAACTT against BC050811 the z-score was inactive: -0.0823.
With GGGAAUCAAUGAAAAUGUGTT against Pcdh8 the z-score was inactive: 0.152.
In the case of GGUCCUAUGGAAAAAGAAATT against Msr1, the z-score is reported as inactive: -0.675.
In the case of GCUGACGGACGAAUGCUACTT against Sema6c, the z-score is reported as inactive: 2.12.
For GACUAACCAGAUGAAAGUCTT against V1rc3, the z-score was inactive: 0.988.
For GGACAACUGCUACGAAGUGTT against Zfp366, the z-score was inactive: 0.868.
